Reference: PubChem BioAssay AID504834 (National Center for Advancing Translational Sciences (NCATS), 2011)
About 22,000 (6.9%) of roughly 320,000 compounds were called active. Inconclusive results, whose numbers are uncertain, are shown with a selection of clear calls. Calls follow the shape of the dose curve; as a rule, active = well fitted inhibition curve with a large enough effect; inconclusive = small, poorly fitted or top-dose-only effect, or another doubt; inactive = no such curve, though single readings can be large or run the other way. Potencies of inconclusive entries are doubtful fits and often do not repeat.
% is scaled to controls: 0 for no effect and ±100 for the full control effect; potency is read from the fitted curve at half-maximal effect.

Assay: Primary qHTS for delayed death inhibitors of the malarial parasite plastid, 96 hour incubation
Details: P. falciparum luciferase reporter growth; series mostly up to 28.7 µM; activity change, negative = inhibition: at the top concentration
Procedure, shortened: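 P. falciparum expressing integrated firefly luciferase, in erythrocytes at 2% hematocrit, 0.05% parasitemia, incubated with compounds 96 h at 37 C, 5% CO2. Growth inhibition read as loss of luminescence; two-generation exposure targets delayed-death apicoplast inhibitors.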
With `CCN(CC)CCn1c(NCc2nc3ccccc3n2Cc2ccccc2)nc2ccccc21` the Potency was active: 3.7 µM. In the case of `COc1ccccc1C(=O)N1CCN(C(=O)COc2cccc(C)c2)CC1`, the Potency is reported as inconclusive: 1.47 µM [inhibitor, full curve, poor fit]. With `COC(=O)c1nc2n(n1)C(c1cc(OC)ccc1OC)C(C(=O)OC1CCCCC1)=C(C)N2` (stereo not drawn) the Potency was inconclusive: 18.5 µM [inhibitor, single point]. With `CCCn1c(=O)n(CC(=O)NCC2CCCO2)c(=O)c2c3c(sc21)COC(C)(C)C3` (stereo not drawn) the Potency was inconclusive: 11.7 µM [inhibitor, single point]. In the case of `CCCCNC(=O)NS(=O)(=O)c1ccc(C)cc1`, the Potency is reported as inconclusive: 16.9 µM [inhibitor, single point]. With `CC(=O)Nc1c(-c2ccccc2)c2cc(Br)ccc2[nH]c1=O` the Potency was inconclusive: 18.5 µM [inhibitor, single point]. In the case of `Cc1cc(/C=C2\C(=O)NC(=O)N(c3cccc(F)c3)C2=O)c(C)n1-c1cc(C(=O)O)cc(C(=O)O)c1`, the “activity change, negative = inhibition” value is reported as inactive: 0.93%. In the case of `COc1ccc(C(=O)Cn2cc[n+](C)c2)cc1`, the “activity change, negative = inhibition” value is reported as inactive: 119%. For `CCCC(C(=O)NC(C)(C)C)N(CC1CCCO1)C(=O)c1snc(C(N)=O)c1N` (stereo not drawn), the Potency was inconclusive: 4.15 µM [inhibitor, full curve, poor fit]. In the case of `COC(=O)c1c(NC(=O)C2C3CCC(C3)C2C(=O)O)sc2c1CCCCC2` (stereo not drawn), the Potency is reported as inconclusive: 18.5 µM [inhibitor, single point]. In the case of `O=C(NCc1ccco1)c1ccc(Cl)cc1[N+](=O)[O-]`, the “activity change, negative = inhibition” value is reported as inactive: 27.1%. In the case of `Cc1ccc(-n2c(SCC(=O)Nc3cccc(S(=O)(=O)NC4=NCCCCC4)c3)nc3ccccc3c2=O)cc1C`, the Potency is reported as inconclusive: 10.4 µM [inhibitor, partial curve]. For `CC1(NC(=O)Cc2csc(-c3cccc(Cl)c3)n2)CCS(=O)(=O)C1` (stereo not drawn), the “activity change, negative = inhibition” value was inactive: -24.9%. With `CCCCOc1ccc(C(=O)Nc2ccc(S(=O)(=O)Nc3cc(C)on3)cc2)cc1OC` the Potency was inconclusive: 18.5 µM [inhibitor, single point]. In the case of `COc1ccc(NC(=O)c2cc(-c3ccco3)nc3ccccc23)cc1S(=O)(=O)N1CCOCC1`, the Potency is reported as inconclusive: 8.28 µM [inhibitor, partial curve, poor fit]. For `Cc1ccc(S(=O)(=O)N2CCCCC2)cc1C(=O)c1nccn1C`, the Potency was inconclusive: 18.5 µM [inhibitor, single point]. With `Cc1ccc(-n2nnnc2C(=Cc2ccc(N(C)C)cc2)c2nnnn2-c2ccc(C)cc2)cc1` the Potency was inconclusive: 14.7 µM [inhibitor, partial curve, poor fit]. For `COc1ccc(C(=O)N/N=C/c2ccc(OC)c(COc3ccccc3)c2)cc1`, the Potency was inconclusive: 18.5 µM [inhibitor, single point]. With `Cc1ccc(Cn2ccc(NC(=O)c3cc(-c4ccco4)on3)n2)cc1` the “activity change, negative = inhibition” value was inactive: 18.7%. With `OC(COc1ccccc1)Cn1c2ccccc2c2ccccc21` (stereo not drawn) the “activity change, negative = inhibition” value was inactive: 196%. For `Cc1ccc(Cn2ncc3c(N4CCN(c5ccc(C)cc5)CC4)ncnc32)cc1`, the “activity change, negative = inhibition” value was inactive: 51.4%. In the case of `COc1cccc(/C=N/Nc2ncnc3c2[nH]c2ccc(C)cc23)c1OC`, the Potency is reported as inconclusive: 8.28 µM [inhibitor, partial curve, poor fit]. With `COCC1CCN(C(=O)c2cc(COc3ccc4ncccc4c3)on2)CC1` the Potency was inconclusive: 14.7 µM [inhibitor, partial curve]. For `O=C1CN=C(c2ccccc2)c2cc(Br)ccc2N1`, the “activity change, negative = inhibition” value was inactive: 5.1%. For `COc1cc(NC(=S)NC(C)=O)ccc1NC(=O)C(C)C`, the “activity change, negative = inhibition” value was inactive: 32.3%. With `CC(C)CCNC(=O)C(=O)Nc1ccc2c(c1)N(S(=O)(=O)c1cccs1)CCC2` the Potency was inconclusive: 11.7 µM [inhibitor, single point]. In the case of `CC1(C)CC(=O)C2=C(C1)OC(N)=C(C#N)C2C1CC=CCC1` (stereo not drawn), the Potency is reported as inconclusive: 2.08 µM [inhibitor, partial curve, poor fit]. With `O=C(CCSc1ccc(Cl)cc1)NC12CC3CC(CC(C3)C1)C2` the Potency was inconclusive: 18.5 µM [inhibitor, single point]. With `Cc1nc(NCCc2ccc(O)cc2)c2nnn(Cc3ccccc3)c2n1` the Potency was inconclusive: 18.5 µM [inhibitor, single point]. With `CN(Cc1ccccc1)C(=O)c1[nH]cnc1C(=O)Nc1cccc(Cl)c1` the Potency was inconclusive: 11.7 µM [inhibitor, single point]. For `CCOC(=O)c1cc(-c2ccc(C)cc2)n(CCC(=O)NCCN(C)C)c1C`, the Potency was inconclusive: 6.57 µM [inhibitor, partial curve]. With `CC(C)c1ccc(S(=O)(=O)/N=C2/C=C(Sc3ncn[nH]3)C(=O)c3ccccc32)cc1` the Potency was inconclusive: 13.1 µM [inhibitor, single point]. With `Cc1ccc(C)c(Nc2c([N+](=O)[O-])ccc3nonc23)c1` the “activity change, negative = inhibition” value was inactive: -4.17%. For `COc1cc(-c2n[nH]c(=S)n2/N=C/c2cccn2C)cc(OC)c1OC`, the Potency was inconclusive: 0.0033 µM [inhibitor, full curve, poor fit]. With `CC1=C(C)CC(C(=O)NCc2c(F)cccc2Cl)C(C(=O)O)C1` (stereo not drawn) the “activity change, negative = inhibition” value was inactive: 27.1%. In the case of `Nc1c(C(=O)c2ccc(Br)s2)oc2ccccc12`, the “activity change, negative = inhibition” value is reported as inactive: 176%. For `O=C(NCc1cccs1)C1CCCN1C(=O)Nc1ccccc1[N+](=O)[O-]` (stereo not drawn), the Potency was inconclusive: 7.38 µM [inhibitor, partial curve, poor fit]. For `O=C(NC1CCSC1=O)c1ccc(Oc2cccc(C(F)(F)F)c2)nc1` (stereo not drawn), the “activity change, negative = inhibition” value was inactive: 14.2%. In the case of `O=C(O)c1ccc(COc2ccc([N+](=O)[O-])cc2)o1`, the “activity change, negative = inhibition” value is reported as inactive: 235%. With `O=C(OCc1nc2ccccc2s1)C1CCN(S(=O)(=O)c2cccs2)CC1` the “activity change, negative = inhibition” value was inactive: 14.9%. With `CCOc1ccc(CCNC(=O)Cn2c(-c3nonc3N)nc3ccccc32)cc1OCC` the Potency was inconclusive: 9.28 µM [inhibitor, single point]. For `COc1ccccc1NC(=O)c1nnn(CC(=O)Nc2ccccc2)c1N`, the Potency was inconclusive: 14.7 µM [inhibitor, single point]. For `Cc1ccccc1OCC(=O)N(Cc1nc(-c2ccccc2)no1)C(C)C`, the “activity change, negative = inhibition” value was inactive: -7.68%. In the case of `CC(=O)NC(C)c1ccc(C(=O)CSc2nnc(C3CC3)n2C2CC2)cc1` (stereo not drawn), the “activity change, negative = inhibition” value is reported as inactive: -21.5%. For `COc1ccccc1C(=O)NC(=O)COC(=O)c1ccc(Br)o1`, the “activity change, negative = inhibition” value was inactive: 27.7%. With `COc1ccc(C(CC(=O)O)NC(=O)c2cccs2)cc1` (stereo not drawn) the Potency was inconclusive: 11.7 µM [inhibitor, partial curve]. With `Cc1cc(/C=N/n2cnnc2)c(C)n1-c1ccc(OCc2ccc(Cl)cc2)cc1` the Potency was active: 11.7 µM. In the case of `NC(=O)CNC(=O)[C@@H]1CC2(CC(c3ccc(Cl)cc3)=NO2)CN1C(=O)c1ccccc1` (stereo partly drawn), the Potency is reported as inconclusive: 0.657 µM [inhibitor, partial curve, poor fit]. With `FC(F)(F)Oc1ccc(NC(=S)Nc2ccccc2N2CCOCC2)cc1` the “activity change, negative = inhibition” value was inactive: 11.4%. With `CSc1nc2ccccc2n1CC(=O)Nc1cc(C(F)(F)F)ccc1N1CCOCC1` the Potency was inconclusive: 10.4 µM [inhibitor, partial curve, poor fit]. For `CCC(=O)N1CCN(c2ccccc2NC(=O)c2cccs2)CC1`, the Potency was inconclusive: 10.4 µM [inhibitor, partial curve, poor fit]. For `Cc1cccc(C)c1OCC(O)CNC(C)c1ccccc1` (stereo not drawn), the Potency was inconclusive: 4.15 µM [inhibitor, single point]. In the case of `Cc1ccc2oc(C(=O)N3CCN(CC(=O)NC(C)C)CC3)c(C)c2c1`, the Potency is reported as inconclusive: 10.4 µM [inhibitor, single point]. In the case of `COc1ccc(C(=O)c2c(N)sc3c2CCN(C)C3)cc1`, the Potency is reported as inconclusive: 10.4 µM [inhibitor, single point]. For `CCOC(=O)COc1ccc(S(=O)(=O)NCc2ccncc2)cc1`, the activity change, negative = inhibition was inactive: -2.25% [at 5.75 µM]. In the case of `Cc1ccc(S(=O)(=O)N2CCCCC2)cc1NC(=O)COC(=O)c1cc[n+]([O-])cc1`, the Potency is reported as inconclusive: 4.15 µM [inhibitor, partial curve, poor fit]. With `C=CC(C)(C)c1[nH]cnc1/C=C1\NC(=O)C(C(C)C)NC1=O` (stereo not drawn) the Potency was active: 2.08 µM. With `C=CCc1cccc(/C=N/NC(=O)CCC(=O)Nc2ccc(F)cc2)c1O` the Potency was inconclusive: 0.828 µM [inhibitor, full curve, poor fit]. With `CN(CCC1CCCCO1)C(=O)CCc1nnc(C2CCCCC2)o1` (stereo not drawn) the Potency was inconclusive: 18.5 µM [inhibitor, single point]. With `Oc1ccc(N2CCN(C(c3ccncc3)c3nnnn3C3CCCC3)CC2)cc1` (stereo not drawn) the Potency was inconclusive: 13.1 µM [inhibitor, partial curve, poor fit]. For `COc1ccc(C=Nc2ccc3[nH]ncc3c2)c(O)c1`, the Potency was inconclusive: 10.4 µM [inhibitor, single point]. With `O=C(Cn1c(NCCCO)nc2ccccc21)c1ccc([N+](=O)[O-])cc1` the Potency was inconclusive: 10.4 µM [inhibitor, single point]. In the case of `CC(C)NC(=O)c1cccc2c1-c1ccccc1C2=O`, the “activity change, negative = inhibition” value is reported as inactive: 29.3%. In the case of `CC1CCN(C2=C(NS(=O)(=O)c3ccc(Br)cc3)C(=O)c3ccccc3C2=O)CC1`, the Potency is reported as inconclusive: 6.57 µM [inhibitor, partial curve]. For `CCN1CCN(c2cc(C)c3cc(NC(=O)c4ccc(C)c(C)c4)ccc3n2)CC1`, the Potency was inconclusive: 7.38 µM [inhibitor, partial curve]. With `CCOC(=O)NNc1ccc2nonc2c1[N+](=O)[O-]` the Potency was inconclusive: 13.1 µM [inhibitor, partial curve]. With `O=C(Nc1cc(S(=O)(=O)N2CCOCC2)ccc1N1CCOCC1)c1cccs1` the Potency was inconclusive: 4.15 µM [inhibitor, partial curve, poor fit]. In the case of `Cc1nn(C)c(C(=O)Nc2ccn(C34CC5CC(CC(C5)C3)C4)n2)c1[N+](=O)[O-]`, the Potency is reported as inconclusive: 11.7 µM [inhibitor, single point].
